Measurements taken from article PMC12462475.
Results are given in words; binding and its absence hold for the method and conditions named. A result given as binding can be weak or reduced; the word gives no strength. Where a sequence is shown, tags or fusion partners need not be part of it.

Target: Synechocystis sp. PCC 6803 CurT, bacterial two-hybrid fusion (Synechocystis sp. PCC 6803) (UniProt Q55176)
Assay: two-hybrid; split-adenylate-cyclase bacterial two-hybrid (BACTH kit) in E. coli BTH101; bait in pUT18C, prey in pKT25; blue colour on LB agar with ampicillin, kanamycin, 0.1 mM IPTG and X-Gal, 1 day past transformation, 37 °C in the dark; n = 4

Molecule	binding
Synechocystis sp. PCC 6803 ZipN, bacterial two-hybrid fusion (from UniProt Q55559)	binds
Synechocystis sp. PCC 6803 FtsZ, bacterial two-hybrid fusion (protein, UniProt P73456 1-430) MTLNNDLPLNNIGFTGSGLNDGTEGLDDLFSSSIVDNEPLEALVETPTFASPSPNLKRDQIVPSNIAKIKVIGVGGGGCNAVNRMIASGVTGIDFWAINTDSQALTNTNAPDCIQIGQKLTRGLGAGGNPAIGQKAAEESRDEIARSLEGTDLVFITAGMGGGTGTGAAPIVAEVAKEMGCLTVGIVTRPFTFEGRRRAKQAEEGINALQSRVDTLIVIPNNQLLSVIPAETPLQEAFRVADDILRQGVQGISDIIIIPGLVNVDFADVRAVMADAGSALMGIGVGSGKSRAKEAATAAISSPLLESSIQGAKGVVFNVTGGTDLTLHEVNVAAEIIYEVVDADANIIFGAVIDDRLQGEMRITVIATGFNGEKEKPQAKTSSKPVLSGPPAGVETVPSTTTPEDPLGEIPMAPELDIPDFLQKRRFPRR	binds
